No constants are given. Whether binding was seen depends on the method and setting. For some of these results: In cells and extracts the contact can be indirect. Some binding calls cover weakened binding; strength is not graded here. For some of these results: Where a sequence is shown, tags or fusion partners need not be part of it. Blank lines part the entries; values can stand above or below the molecule they belong to.
Key:
[1] = target: T1, endogenous Hop2 (homologous pairing protein 2) (mouse (endogenous in mouse visceral adipose tissue and 3T3-L1 cells)) (UniProt O35047); assay: co-IP; Nuclear extracts of differentiating 3T3-L1 cultures after adipogenic induction (day 2 for CEBPβ and CEBPδ, day 4 for CEBPα); endogenous proteins; Western blot
T1 sequence: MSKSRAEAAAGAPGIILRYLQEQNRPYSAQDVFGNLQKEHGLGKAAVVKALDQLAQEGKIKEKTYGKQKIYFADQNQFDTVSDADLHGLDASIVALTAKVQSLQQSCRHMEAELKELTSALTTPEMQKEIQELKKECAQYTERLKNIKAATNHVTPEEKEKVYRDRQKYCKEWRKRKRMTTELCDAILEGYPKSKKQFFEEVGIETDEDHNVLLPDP

By UniProt entry, the sequences of proteins in these tests, tags left out. Where a name states a change or a piece, a line headed by the entry shows the natural chain unless it says otherwise.
UniProt P28033: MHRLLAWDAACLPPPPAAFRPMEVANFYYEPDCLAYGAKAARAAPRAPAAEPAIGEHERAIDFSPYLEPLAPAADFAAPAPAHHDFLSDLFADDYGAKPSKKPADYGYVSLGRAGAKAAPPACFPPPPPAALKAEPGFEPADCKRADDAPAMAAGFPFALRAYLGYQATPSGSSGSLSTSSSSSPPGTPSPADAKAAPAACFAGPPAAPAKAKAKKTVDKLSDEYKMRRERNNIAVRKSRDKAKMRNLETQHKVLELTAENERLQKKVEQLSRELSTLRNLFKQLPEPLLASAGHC
UniProt P53566: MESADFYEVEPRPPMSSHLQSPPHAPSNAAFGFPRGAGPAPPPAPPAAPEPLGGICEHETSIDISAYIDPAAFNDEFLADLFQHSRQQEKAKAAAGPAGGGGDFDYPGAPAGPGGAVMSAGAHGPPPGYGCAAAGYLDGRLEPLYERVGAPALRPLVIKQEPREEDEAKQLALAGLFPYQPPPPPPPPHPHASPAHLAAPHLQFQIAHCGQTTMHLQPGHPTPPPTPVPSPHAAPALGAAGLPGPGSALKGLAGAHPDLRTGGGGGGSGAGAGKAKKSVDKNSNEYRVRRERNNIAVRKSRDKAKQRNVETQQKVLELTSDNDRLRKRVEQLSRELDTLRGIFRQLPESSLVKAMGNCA

[2] = target: T1, endogenous Hop2 (homologous pairing protein 2) (mouse (endogenous in mouse visceral adipose tissue and 3T3-L1 cells)); assay: co-IP; Nuclear extracts of wt mouse visceral adipose tissue; IP with antibodies against Hop2, CEBPα, CEBPβ or CEBPδ, anti-IgG as negative control; Western blot; endogenous proteins
[3] = target: T2, GST-Hop2 fusion protein (homologous pairing protein 2) (UniProt O35047); assay: pull-down; GST-Hop2 or GST bound on glutathione-sepharose 4B, incubated with purified His-C/EBPα (1 μg) for 2 h in PBS pH 7.4 at 4 °C; three washes with PBS; SDS-PAGE, Coomassie staining; both purified
T2 sequence: T1 sequence

[4] = target: T3, hemagglutinin (HA)-tagged Hop2 (UniProt O35047); assay: co-IP; Nuclear extracts of COS1 cells transfected with HA-Hop2, Flag-CEBPα or both; anti-Flag M2 beads or anti-HA with IgA/G beads in radioimmunoprecipitation buffer overnight at 4 °C; Western blot
T3 sequence: T1 sequence

[5] = target: endogenous CEBPβ (CCAAT enhancer binding protein beta) (mouse (endogenous in mouse visceral adipose tissue and 3T3-L1 cells)) (UniProt P28033); assay: co-IP; Nuclear extracts of differentiating 3T3-L1 cultures after adipogenic induction (day 2 for CEBPβ and CEBPδ, day 4 for CEBPα); endogenous proteins; Western blot
[6] = target: T4, endogenous CEBPδ (CCAAT enhancer binding protein delta) (mouse (endogenous in mouse visceral adipose tissue and 3T3-L1 cells)) (UniProt Q00322); assay: as above
T4 sequence: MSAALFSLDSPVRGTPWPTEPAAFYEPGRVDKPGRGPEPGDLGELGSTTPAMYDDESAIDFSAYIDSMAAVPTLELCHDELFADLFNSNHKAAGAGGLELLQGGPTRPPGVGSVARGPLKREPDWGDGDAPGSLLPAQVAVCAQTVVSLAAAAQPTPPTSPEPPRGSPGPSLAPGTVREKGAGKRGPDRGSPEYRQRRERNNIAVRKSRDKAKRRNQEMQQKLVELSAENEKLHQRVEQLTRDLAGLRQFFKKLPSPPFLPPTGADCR

[7] = target: endogenous CEBPα (CCAAT enhancer binding protein alpha) (mouse (endogenous in mouse visceral adipose tissue and 3T3-L1 cells)) (UniProt P53566); assay: as above
[8] = target: endogenous CEBPβ (CCAAT enhancer binding protein beta) (mouse (endogenous in mouse visceral adipose tissue and 3T3-L1 cells)) (UniProt P28033); assay: co-IP; Nuclear extracts of wt mouse visceral adipose tissue; IP with antibodies against Hop2, CEBPα, CEBPβ or CEBPδ, anti-IgG as negative control; Western blot; endogenous proteins
[9] = target: T4, endogenous CEBPδ (CCAAT enhancer binding protein delta) (mouse (endogenous in mouse visceral adipose tissue and 3T3-L1 cells)); assay: as above
[10] = target: endogenous CEBPα (CCAAT enhancer binding protein alpha) (mouse (endogenous in mouse visceral adipose tissue and 3T3-L1 cells)) (UniProt P53566); assay: as above
Flag-tagged CEBPα = Flag-tagged CEBPα (UniProt P53566 1-359); assay: co-IP; Nuclear extracts of COS1 cells transfected with HA-Hop2, Flag-CEBPα or both; anti-Flag M2 beads or anti-HA with IgA/G beads in radioimmunoprecipitation buffer overnight at 4 °C; Western blot
[11] = target: His-tagged CEBPα (CCAAT enhancer binding protein alpha) (UniProt P53566); assay: pull-down; His-CEBPα (1 μg) on Ni-NTA-agarose in PBS pH 8.0 with 10 mM imidazole, 4 °C; GST-Hop2 (1 μg) added for 2 h at 4 °C; washes with PBS with 50 mM imidazole; SDS-PAGE, Coomassie staining; GST-Hop2 alone on beads as negative control; both purified

binding [1]: binds
binding [2]: binds
Molecule: endogenous CEBPβ (CCAAT enhancer binding protein beta) (from UniProt P28033-1 1-296)

binding [5]: binds
binding [6]: binds
binding [7]: binds
binding [8]: binds
binding [9]: binds
binding [10]: binds
B1: endogenous Hop2 (homologous pairing protein 2) (protein, UniProt O35047 1-217)
chain: T1 sequence

binding [1]: binds
binding [2]: binds
B4: endogenous CEBPδ (CCAAT enhancer binding protein delta) (protein, UniProt Q00322 1-268)
chain: T4 sequence

Second part, the molecule before the results:

Molecule: endogenous CEBPα (CCAAT enhancer binding protein alpha) (from UniProt P53566-1 1-359)
binding [1]: binds
binding [2]: binds

Molecule: His-tagged CEBPα (CCAAT enhancer binding protein alpha) (from UniProt P53566 1-359)
binding [3]: binds

Molecule: Flag-tagged CEBPα (from UniProt P53566 1-359)
binding [4]: binds

B2: hemagglutinin (HA)-tagged Hop2 (natural protein, UniProt O35047 1-217, looked up)
chain: T1 sequence
binding (Flag-tagged CEBPα): binds

B3: GST-Hop2 fusion protein (homologous pairing protein 2) (protein, UniProt O35047 1-217)
chain: T1 sequence
binding [11]: binds

From paper PMC8528721, “Hop2 interacts with the transcription factor CEBPα and suppresses adipocyte differentiation” (The Journal of Biological Chemistry, 2021)
